PubChem BioAssay AID720505, Drosophila RNAi Screening Center – 2013
The deposit covers about 20,000 reagents; below is a random part of those with a known target gene and a result. Of all reagents, about 2,100 (10%) are marked active. 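Raw plate signals without normalisation; calls rest on control-based scores that were not deposited; replicate 2 separates called from uncalled poorly.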 A plus sign joins genes that one reagent is predicted to hit. No sequences are given here. Not given: the amount of reagent, the time to read-out.

Purpose: 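Fly regulators or components of the CRAC channel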 (primary screen)
System: Drosophila S2R+ cells
Reagents: long dsRNA against Drosophila genes
Conditions: thapsigargin (2 µM) in calcium-free buffer to empty internal stores, then 2 mM calcium added back
Detection: 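Fluo-4 signal in 384-well plates read on a FLIPR after thapsigargin (2 µM, calcium-free) store depletion and 2 mM calcium add-back; unnormalised mean endpoint per well; screen run twice, selected wells retested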
Scale: calcium signal and retest calcium signal: higher = more calcium entry after store depletion
Hit rule: 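Knock-downs counted as hits when calcium entry dropped relative to STIM1 positive and Rho1 negative controls present on each plate; roughly 1500 genes called, with reductions of differing size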
Meaning of the calls: active = called as lowering calcium entry; inactive = not called

no.	target gene	dsRNA	calcium signal, replicate 1	calcium signal, replicate 2	retest calcium signal, replicate 1	retest calcium signal, replicate 2	outcome
1	CG6729	DRSC02984	89.4	151	78.1	89.1	inactive
2	CG6729	DRSC22793	78.2	86.7			inactive
3	CG12698	DRSC19485	105	130			inactive
4	Echs1	DRSC06999	108	198			inactive
5	eIF3d1	DRSC16938	58.9	80.1			active
6	CG13038	DRSC09919	108	184			inactive
7	CG30384	DRSC06032	135	179			inactive
8	ppk14	DRSC03238	198	102			inactive
9	Srg3	DRSC10178	91.4	94			inactive
10	mRpL22	DRSC19915	152	142			inactive
11	mod(mdg4) + pre-mod(mdg4)-Z + pre-mod(mdg4)-T	DRSC17001	93.6	105			inactive
12	CIAPIN1	DRSC03559	66.3	159			active
13	CG5984	DRSC15930	162	168			inactive
14	Drat	DRSC06600	170	106			inactive
15	SdhAL	DRSC10539	59.2	117			active
16	eEF1alpha2	DRSC16658	103	132			inactive
17	ubl	DRSC04998	109	87.9			inactive
18	CG14931	DRSC02413	199	135			inactive
19	Golgin104	DRSC10459	109	94.7			inactive
20	CG14269	DRSC17912	74.9	89.6			inactive
21	CG33268	DRSC10143	123	110			inactive
22	bbc	DRSC06958	179	142	85.6	114	inactive
23	bbc	DRSC22309	130	219			inactive
24	CG31635	DRSC02273	167	102			inactive
25	CG31635	DRSC02274	145	122			inactive
26	CG16935	DRSC06638	78.8	179			inactive
27	ATPsynC	DRSC15236	56.7	44			active
28	a10	DRSC11319	82.4	166			inactive
29	Ugt49B1	DRSC04461	94.3	104			inactive
30	if	DRSC20341	79.4	131			inactive
31	Vps20	DRSC04448	116	150			inactive
32	Qtzl	DRSC01221	211	84.6			inactive
33	porin	DRSC03594	91.3	126			inactive
34	PolG1	DRSC03621	89.8	141			inactive
